Results are given in words; binding and its absence hold for the method and conditions named. Binding seen in cells or lysates may run through a third protein. Some entries that bind do so weakly or less than the wild type.
Target: skeletal muscle ryanodine receptor 1 (mouse (endogenous in gastrocnemius muscle)) (UniProt E9PZQ0)
Assay: co-IP

Sequences of proteins named here, by UniProt entry; tags and fusion partners are left off.
UniProt E9PZQ0: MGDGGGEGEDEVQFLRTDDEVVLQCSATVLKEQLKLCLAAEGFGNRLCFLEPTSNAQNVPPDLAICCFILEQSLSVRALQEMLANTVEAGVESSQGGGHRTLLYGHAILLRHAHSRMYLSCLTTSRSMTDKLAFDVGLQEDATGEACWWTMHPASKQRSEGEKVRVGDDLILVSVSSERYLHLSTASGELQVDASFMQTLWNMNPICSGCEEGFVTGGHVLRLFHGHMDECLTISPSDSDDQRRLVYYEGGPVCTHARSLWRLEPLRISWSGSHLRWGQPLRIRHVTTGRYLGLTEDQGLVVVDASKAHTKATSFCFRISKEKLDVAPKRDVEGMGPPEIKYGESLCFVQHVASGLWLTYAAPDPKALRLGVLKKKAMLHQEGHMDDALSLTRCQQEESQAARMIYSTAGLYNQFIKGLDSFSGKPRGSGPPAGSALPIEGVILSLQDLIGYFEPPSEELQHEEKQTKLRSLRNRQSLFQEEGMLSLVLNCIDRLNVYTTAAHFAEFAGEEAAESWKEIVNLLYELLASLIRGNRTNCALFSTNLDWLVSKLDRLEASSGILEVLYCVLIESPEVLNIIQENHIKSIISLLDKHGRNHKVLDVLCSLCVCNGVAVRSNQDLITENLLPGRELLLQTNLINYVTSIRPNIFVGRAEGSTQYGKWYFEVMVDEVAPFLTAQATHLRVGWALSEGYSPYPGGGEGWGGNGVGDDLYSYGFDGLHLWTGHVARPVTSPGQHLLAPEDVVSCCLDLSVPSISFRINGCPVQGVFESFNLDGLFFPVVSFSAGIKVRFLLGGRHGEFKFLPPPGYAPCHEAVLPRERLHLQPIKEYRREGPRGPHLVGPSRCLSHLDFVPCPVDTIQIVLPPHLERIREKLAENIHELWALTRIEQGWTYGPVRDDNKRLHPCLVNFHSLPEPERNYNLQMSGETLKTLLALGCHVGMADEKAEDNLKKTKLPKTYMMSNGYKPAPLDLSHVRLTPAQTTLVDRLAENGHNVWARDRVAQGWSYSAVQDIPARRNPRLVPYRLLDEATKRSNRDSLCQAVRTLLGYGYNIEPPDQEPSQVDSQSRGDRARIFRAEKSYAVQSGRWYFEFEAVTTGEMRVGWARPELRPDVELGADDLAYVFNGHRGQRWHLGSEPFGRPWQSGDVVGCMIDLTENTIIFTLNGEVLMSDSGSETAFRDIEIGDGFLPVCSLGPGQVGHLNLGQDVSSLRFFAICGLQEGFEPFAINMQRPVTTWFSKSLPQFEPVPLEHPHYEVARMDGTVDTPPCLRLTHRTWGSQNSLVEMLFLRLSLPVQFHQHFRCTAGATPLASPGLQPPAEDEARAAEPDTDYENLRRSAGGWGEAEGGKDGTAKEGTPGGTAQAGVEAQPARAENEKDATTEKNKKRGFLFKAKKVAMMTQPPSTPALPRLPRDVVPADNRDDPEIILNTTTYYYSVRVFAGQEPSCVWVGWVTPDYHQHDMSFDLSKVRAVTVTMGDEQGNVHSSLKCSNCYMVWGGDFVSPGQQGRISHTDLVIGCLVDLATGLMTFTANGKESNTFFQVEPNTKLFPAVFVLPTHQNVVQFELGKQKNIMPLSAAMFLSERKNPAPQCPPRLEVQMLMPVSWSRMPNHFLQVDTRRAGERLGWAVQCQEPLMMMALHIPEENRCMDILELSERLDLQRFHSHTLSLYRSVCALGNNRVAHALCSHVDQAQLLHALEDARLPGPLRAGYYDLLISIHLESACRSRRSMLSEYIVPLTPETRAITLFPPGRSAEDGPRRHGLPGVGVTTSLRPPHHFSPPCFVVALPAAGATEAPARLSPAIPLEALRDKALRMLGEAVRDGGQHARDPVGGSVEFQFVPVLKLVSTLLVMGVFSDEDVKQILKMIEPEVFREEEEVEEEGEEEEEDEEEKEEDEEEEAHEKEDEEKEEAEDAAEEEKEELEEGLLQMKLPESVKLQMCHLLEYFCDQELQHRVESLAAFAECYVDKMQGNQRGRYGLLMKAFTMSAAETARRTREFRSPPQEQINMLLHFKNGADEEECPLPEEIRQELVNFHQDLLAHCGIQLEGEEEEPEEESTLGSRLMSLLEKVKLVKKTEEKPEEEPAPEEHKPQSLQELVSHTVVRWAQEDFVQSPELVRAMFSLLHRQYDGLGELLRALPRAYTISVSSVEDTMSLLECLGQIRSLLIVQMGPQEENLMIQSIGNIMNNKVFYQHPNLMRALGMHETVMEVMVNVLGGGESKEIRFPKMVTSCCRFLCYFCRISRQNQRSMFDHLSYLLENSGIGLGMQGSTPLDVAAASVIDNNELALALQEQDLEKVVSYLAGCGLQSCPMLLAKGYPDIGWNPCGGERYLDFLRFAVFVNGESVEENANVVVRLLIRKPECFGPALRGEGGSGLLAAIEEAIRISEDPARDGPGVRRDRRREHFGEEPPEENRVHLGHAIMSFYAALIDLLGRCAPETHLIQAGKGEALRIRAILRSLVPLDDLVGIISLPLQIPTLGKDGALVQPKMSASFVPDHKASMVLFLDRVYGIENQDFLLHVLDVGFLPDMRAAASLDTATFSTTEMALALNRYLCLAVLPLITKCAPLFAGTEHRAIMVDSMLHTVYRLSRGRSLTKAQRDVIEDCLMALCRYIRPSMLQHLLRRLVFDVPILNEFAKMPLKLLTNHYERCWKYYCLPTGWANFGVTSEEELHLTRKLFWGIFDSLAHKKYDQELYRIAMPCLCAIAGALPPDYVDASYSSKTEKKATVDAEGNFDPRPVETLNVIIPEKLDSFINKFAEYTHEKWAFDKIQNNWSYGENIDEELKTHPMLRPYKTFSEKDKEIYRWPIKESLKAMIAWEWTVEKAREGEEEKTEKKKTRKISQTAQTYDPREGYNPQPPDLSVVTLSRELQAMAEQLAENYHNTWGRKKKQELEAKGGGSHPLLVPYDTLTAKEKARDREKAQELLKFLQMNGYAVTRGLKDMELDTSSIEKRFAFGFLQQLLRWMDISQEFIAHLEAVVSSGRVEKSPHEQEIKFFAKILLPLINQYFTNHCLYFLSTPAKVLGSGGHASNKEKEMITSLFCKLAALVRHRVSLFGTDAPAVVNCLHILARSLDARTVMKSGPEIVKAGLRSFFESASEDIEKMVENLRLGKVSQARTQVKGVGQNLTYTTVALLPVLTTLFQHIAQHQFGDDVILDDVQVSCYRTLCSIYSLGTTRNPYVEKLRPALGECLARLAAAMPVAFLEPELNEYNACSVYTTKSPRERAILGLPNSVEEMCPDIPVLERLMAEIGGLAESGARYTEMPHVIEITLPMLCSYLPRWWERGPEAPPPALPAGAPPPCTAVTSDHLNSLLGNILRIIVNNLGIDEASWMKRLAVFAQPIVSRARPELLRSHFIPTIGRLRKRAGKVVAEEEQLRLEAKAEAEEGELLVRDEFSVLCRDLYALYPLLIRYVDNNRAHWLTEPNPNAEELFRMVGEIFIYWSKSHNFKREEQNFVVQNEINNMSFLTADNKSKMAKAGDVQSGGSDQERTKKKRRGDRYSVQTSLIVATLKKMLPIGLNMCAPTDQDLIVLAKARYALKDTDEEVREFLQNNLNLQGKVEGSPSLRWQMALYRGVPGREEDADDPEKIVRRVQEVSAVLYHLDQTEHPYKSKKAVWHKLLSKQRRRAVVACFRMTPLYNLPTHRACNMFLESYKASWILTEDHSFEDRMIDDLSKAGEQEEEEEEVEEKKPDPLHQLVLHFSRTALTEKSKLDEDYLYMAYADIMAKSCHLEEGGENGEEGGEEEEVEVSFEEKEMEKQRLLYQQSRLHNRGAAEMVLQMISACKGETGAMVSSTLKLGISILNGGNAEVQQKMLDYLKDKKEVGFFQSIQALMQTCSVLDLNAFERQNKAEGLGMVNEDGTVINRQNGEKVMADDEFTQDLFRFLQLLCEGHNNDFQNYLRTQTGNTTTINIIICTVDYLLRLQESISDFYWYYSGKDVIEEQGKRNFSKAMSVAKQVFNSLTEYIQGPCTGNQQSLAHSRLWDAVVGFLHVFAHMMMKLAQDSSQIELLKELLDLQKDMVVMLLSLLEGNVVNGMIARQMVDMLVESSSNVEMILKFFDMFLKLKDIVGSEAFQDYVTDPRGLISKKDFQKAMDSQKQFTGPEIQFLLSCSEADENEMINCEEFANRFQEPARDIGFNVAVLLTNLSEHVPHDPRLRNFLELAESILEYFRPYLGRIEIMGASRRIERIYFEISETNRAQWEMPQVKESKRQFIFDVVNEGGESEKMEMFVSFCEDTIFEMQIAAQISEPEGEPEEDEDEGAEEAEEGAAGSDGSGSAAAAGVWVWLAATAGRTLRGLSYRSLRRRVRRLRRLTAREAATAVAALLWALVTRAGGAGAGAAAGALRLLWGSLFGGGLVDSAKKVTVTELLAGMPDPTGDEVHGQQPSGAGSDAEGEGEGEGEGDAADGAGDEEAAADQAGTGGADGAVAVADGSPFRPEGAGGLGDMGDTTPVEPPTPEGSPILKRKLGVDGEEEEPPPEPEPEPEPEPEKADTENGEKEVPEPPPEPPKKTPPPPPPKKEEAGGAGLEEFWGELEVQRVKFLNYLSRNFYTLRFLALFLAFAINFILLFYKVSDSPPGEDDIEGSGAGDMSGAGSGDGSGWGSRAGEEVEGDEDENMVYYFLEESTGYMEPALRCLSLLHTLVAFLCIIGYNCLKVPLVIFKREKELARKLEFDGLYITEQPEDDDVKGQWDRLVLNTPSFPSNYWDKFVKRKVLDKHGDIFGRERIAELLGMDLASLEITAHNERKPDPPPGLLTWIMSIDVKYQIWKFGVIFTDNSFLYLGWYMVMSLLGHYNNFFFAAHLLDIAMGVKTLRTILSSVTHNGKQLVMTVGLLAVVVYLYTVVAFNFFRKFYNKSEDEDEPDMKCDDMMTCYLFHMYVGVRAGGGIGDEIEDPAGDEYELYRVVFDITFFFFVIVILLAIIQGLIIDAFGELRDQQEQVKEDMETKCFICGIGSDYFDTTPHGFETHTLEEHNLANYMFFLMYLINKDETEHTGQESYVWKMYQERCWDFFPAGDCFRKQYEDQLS
UniProt P26883: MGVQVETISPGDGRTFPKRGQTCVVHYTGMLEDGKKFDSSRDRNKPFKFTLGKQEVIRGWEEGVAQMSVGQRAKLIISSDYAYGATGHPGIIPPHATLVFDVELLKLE

## calstabin 1 (from UniProt P26883 1-108)
  binding: binds
